{
  "source": "patent US20120045764A1",
  "about": "“METHOD OF EXPANDING HUMAN HEPATOCYTES IN VIVO” (priority 2009, published 2012)",
  "system": "human drug metabolism genes",
  "test": "Induction of mRNAs of drug metabolism genes in cultured hepatocytes from humanized mice (real-time PCR)",
  "type": "cell-based",
  "settings": "cultured hepatocytes from chimeric mice, mRNA",
  "description": "Cultures of isolated hepatocytes were established and exposed to prototypical inducers of the cytochrome P450 genes. […]. In addition to the mRNA expression levels of human drug metabolism genes, the enzymatic activity of the human CYP1A and 3A family members were measured. Ethoxyresorufin-O-deethylase activity (EROD) is known to be mediated by CYP1A1 and 1A2 in human liver. […] Thus, hepatocytes from repopulated FRG livers were indistinguishable from normal human adult hepatocytes in these standard drug metabolism assays.",
  "note": "At least one compound was matched to its structure with a doubt left.",
  "data": [
    {"smiles": "CCC1(c2ccccc2)C(=O)NC(=O)NC1=O", "note": "[PB, phenobarbital]", "values": [
      {"measurement": "pattern of genes induced", "result": "as expected from normal human cells"}
    ]}
  ]
}
